Data as given in article PMC6355014, “Isolation and characterization of a tandem-repeated cysteine protease from the symbiotic dinoflagellate Symbiodinium sp. KB8” (PLoS ONE, 2019).
Starred links: 1 amine or outer side, 2 acyl side, 3 side chain; linkers in the order of their positions; H or OH if unused. Residues, ends and D or L forms follow the SMILES beside them. CO = O=C([*:1])[*:2]

System: T1, VLKP (VLK protease), purified native
T1 construct: native purification from algal cells; repeats Lys37-Ala332 and Lys357-Ala652 identical; final prep also held Fe-superoxide dismutase band
Experiment: fluorogenic peptidase assay
Format: biochemical, Symbiodinium sp. KB8
Details: residual activity, control 100%, substrate Boc-VLK-MCA, pH 4.0, 37 °C (standard assay)
From the text: fluorogenic peptidase assay on VLKP (VLK protease), purified native

Compound	Relative activity (%) (1 µM)	Relative activity (%) (10 µM)
CC(C)C[C@H](NC(=O)[C@H]1O[C@@H]1C(=O)O)C(=O)NCCCCN=C(N)N [E-64, trans-epoxysuccinyl-L-leucyl-amido(4-guanidino)butane]	2.0 ± 1.1	
Cc1ccc(S(=O)(=O)N[C@@H](Cc2ccccc2)C(=O)CCl)cc1 [TPCK]		17.7 ± 2.4
CC(C)[C@H](NC(=O)[C@H](CCCNC(=N)N)NC(=O)N[C@@H](Cc1ccccc1)C(=O)O)C(=O)N[C@H](C=O)CCCNC(=N)N [antipain] ({Phe-CO}-Arg-Val-Arg-aldehyde)		9.0 ± 0.4
CC(=O)N[C@@H](CC(C)C)C(=O)N[C@@H](CC(C)C)C(=O)N[C@H](C=O)CCCNC(=N)N [leupeptin]		2.0 ± 1.0
